Source: patent publication US20220241264A1, “METHODS FOR PREVENTION AND TREATMENT OF FIBROMYALGIA BY CONTACT VASODILATORS” (priority 2019, published 2022)
At least one structure is not confirmed: it was looked up by name or label, or the drawing left a doubt.

System: fibromyalgia pain in soft tissue regions and myofacial regions
Source text: The following prophetic examples are of cases that address the painful experiences associated with fibromyalgia. The examples also describe a new, safe, simple and until now, an unknown pharmaceutical solution to the problem of fibromyalgia syndrome: the novel use of vasodilators such as calcium channel blockers, ACE inhibitors, and angiotensin receptor blockers. Vasodilators are not analgesics, but they resolve or mitigate the pain associated with fibromyalgia.
A patient is diagnosed with fibromyalgia, and suffers from pain in soft tissue regions and myofacial regions. […] After several months, treatment is halted.
A patient is diagnosed with fibromyalgia, and suffers from pain in soft tissue regions and myofacial regions. Daily use of Amlodipine in a topical form is prescribed for application to skin adjacent to regions where pain is experienced. […] After several months, treatment is halted.
A patient is diagnosed with fibromyalgia, and suffers from pain in soft tissue regions and myofacial regions. Daily use of enalapril in a topical form is prescribed for application to skin adjacent to regions where pain is experienced. […] After several months, treatment is halted.
A patient is diagnosed with fibromyalgia, and suffers from pain in soft tissue regions and myofacial regions. […]

## CCOC(=O)C1=C(COCCN)NC(C)=C(C(=O)OC)C1c1ccccc1Cl (centres unmarked) [Amlodipine]
Daily use in a topical form on skin adjacent to regions where pain is experienced, during treatment
  patient-reported pain levels in the treated regions: reduction in pain levels
Treatment halted after several months, report weeks later
  patient-reported pain levels after treatment is halted: reduction in pain levels has been maintained
